Experimental data as given in publication doi:10.1101/2021.01.27.428282.
No constants are given. Whether binding was seen depends on the method and setting. In cells and extracts the contact can be indirect. Some results given as binding are weak or reduced against the parent protein; the word gives no strength.

Amino acid sequences for entries named in this document (tags omitted).
UniProt Q12888: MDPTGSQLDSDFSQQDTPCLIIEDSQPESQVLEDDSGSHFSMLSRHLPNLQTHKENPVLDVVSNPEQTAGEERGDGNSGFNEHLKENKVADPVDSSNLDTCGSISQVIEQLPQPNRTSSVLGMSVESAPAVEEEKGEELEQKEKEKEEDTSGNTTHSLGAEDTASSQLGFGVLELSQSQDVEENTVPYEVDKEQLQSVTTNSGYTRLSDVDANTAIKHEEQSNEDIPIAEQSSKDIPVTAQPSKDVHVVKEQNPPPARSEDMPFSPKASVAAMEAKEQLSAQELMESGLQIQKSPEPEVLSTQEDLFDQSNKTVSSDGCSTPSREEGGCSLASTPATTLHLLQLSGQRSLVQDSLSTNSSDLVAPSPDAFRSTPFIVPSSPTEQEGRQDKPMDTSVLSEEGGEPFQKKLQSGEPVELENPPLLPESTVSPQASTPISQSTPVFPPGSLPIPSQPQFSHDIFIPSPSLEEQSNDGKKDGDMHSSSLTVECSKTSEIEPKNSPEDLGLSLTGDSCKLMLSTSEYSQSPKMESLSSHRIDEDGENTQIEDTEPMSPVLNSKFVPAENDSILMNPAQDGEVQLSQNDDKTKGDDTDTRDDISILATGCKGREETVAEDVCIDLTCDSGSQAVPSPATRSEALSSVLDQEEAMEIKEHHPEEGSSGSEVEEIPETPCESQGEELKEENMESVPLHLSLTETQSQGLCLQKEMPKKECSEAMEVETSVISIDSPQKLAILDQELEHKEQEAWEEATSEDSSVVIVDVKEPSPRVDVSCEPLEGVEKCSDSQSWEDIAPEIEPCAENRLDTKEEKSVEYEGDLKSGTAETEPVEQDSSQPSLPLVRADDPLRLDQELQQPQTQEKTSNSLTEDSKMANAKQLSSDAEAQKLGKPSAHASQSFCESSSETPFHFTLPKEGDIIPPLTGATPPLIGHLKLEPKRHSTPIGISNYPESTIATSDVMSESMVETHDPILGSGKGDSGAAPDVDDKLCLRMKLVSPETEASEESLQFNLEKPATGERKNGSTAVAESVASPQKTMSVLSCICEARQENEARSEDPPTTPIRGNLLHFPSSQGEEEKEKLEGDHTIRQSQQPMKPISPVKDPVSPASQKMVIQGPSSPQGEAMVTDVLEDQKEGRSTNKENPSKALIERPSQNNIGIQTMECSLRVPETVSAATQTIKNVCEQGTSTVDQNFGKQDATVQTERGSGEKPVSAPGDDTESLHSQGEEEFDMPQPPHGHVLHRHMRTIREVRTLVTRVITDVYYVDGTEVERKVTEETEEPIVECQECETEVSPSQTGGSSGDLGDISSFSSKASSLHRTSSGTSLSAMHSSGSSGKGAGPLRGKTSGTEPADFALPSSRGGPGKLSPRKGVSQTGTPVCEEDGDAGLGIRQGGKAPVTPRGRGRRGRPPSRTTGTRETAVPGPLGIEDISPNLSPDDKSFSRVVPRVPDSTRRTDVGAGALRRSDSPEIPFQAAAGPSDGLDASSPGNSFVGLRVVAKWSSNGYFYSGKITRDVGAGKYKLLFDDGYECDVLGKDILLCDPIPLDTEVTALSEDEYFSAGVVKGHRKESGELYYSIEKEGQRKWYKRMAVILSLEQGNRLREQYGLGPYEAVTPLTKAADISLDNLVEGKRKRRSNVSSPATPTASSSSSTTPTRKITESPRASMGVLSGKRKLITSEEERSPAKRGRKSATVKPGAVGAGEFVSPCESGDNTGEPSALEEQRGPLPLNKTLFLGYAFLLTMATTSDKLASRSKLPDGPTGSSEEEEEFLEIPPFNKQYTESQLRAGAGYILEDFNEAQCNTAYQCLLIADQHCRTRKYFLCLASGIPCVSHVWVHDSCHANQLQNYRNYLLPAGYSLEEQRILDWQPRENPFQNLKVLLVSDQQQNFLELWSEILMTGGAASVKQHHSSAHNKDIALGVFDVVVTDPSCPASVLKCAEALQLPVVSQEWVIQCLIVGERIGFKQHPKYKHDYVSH

B1: USP47, endogenous (enzyme, UniProt Q96K76 1-1375)
chain: MVPGEENQLVPKEDVFWRCRQNIFDEMKKKFLQIENAAEEPRVLCIIQDTTNSKTVNERITLNLPASTPVRKLFEDVANKVGYINGTFDLVWGNGINTADMAPLDHTSDKSLLDANFEPGKKNFLHLTDKDGEQPQILLEDSSAGEDSVHDRFIGPLPREGSGGSTSDYVSQSYSYSSILNKSETGYVGLVNQAMTCYLNSLLQTLFMTPEFRNALYKWEFEESEEDPVTSIPYQLQRLFVLLQTSKKRAIETTDVTRSFGWDSSEAWQQHDVQELCRVMFDALEQKWKQTEQADLINELYQGKLKDYVRCLECGYEGWRIDTYLDIPLVIRPYGSSQAFASVEEALHAFIQPEILDGPNQYFCERCKKKCDARKGLRFLHFPYLLTLQLKRFDFDYTTMHRIKLNDRMTFPEELDMSTFIDVEDEKSPQTESCTDSGAENEGSCHSDQMSNDFSNDDGVDEGICLETNSGTEKISKSGLEKNSLIYELFSVMVHSGSAAGGHYYACIKSFSDEQWYSFNDQHVSRITQEDIKKTHGGSSGSRGYYSSAFASSTNAYMLIYRLKDPARNAKFLEVDEYPEHIKNLVQKERELEEQEKRQREIERNTCKIKLFCLHPTKQVMMENKLEVHKDKTLKEAVEMAYKMMDLEEVIPLDCCRLVKYDEFHDYLERSYEGEEDTPMGLLLGGVKSTYMFDLLLETRKPDQVFQSYKPGEVMVKVHVVDLKAESVAAPITVRAYLNQTVTEFKQLISKAIHLPAETMRIVLERCYNDLRLLSVSSKTLKAEGFFRSNKVFVESSETLDYQMAFADSHLWKLLDRHANTIRLFVLLPEQSPVSYSKRTAYQKAGGDSGNVDDDCERVKGPVGSLKSVEAILEESTEKLKSLSLQQQQDGDNGDSSKSTETSDFENIESPLNERDSSASVDNRELEQHIQTSDPENFQSEERSDSDVNNDRSTSSVDSDILSSSHSSDTLCNADNAQIPLANGLDSHSITSSRRTKANEGKKETWDTAEEDSGTDSEYDESGKSRGEMQYMYFKAEPYAADEGSGEGHKWLMVHVDKRITLAAFKQHLEPFVGVLSSHFKVFRVYASNQEFESVRLNETLSSFSDDNKITIRLGRALKKGEYRVKVYQLLVNEQEPCKFLLDAVFAKGMTVRQSKEELIPQLREQCGLELSIDRFRLRKKTWKNPGTVFLDYHIYEEDINISSNWEVFLEVLDGVEKMKSMSQLAVLSRRWKPSEMKLDPFQEVVLESSSVDELREKLSEISGIPLDDIEFAKGRGTFPCDISVLDIHQDLDWNPKVSTLNVWPLYICDDGAVIFYRDKTEELMELTDEQRNELMKKESSRLQKTGHRVTYSPRKEKALKIYLDGAPNKDLTQD
B2: DNA ligase III (enzyme, UniProt P49916 43-1009)
chain: LLHGHPLFLRRKPVLSFQGSHLRSRATYLVFLPGLHVGLCSGPCEMAEQRFCVDYAKRGTAGCKKCKEKIVKGVCRIGKVVPNPFSESGGDMKEWYHIKCMFEKLERARATTKKIEDLTELEGWEELEDNEKEQITQHIADLSSKAAGTPKKKAVVQAKLTTTGQVTSPVKGASFVTSTNPRKFSGFSAKPNNSGEAPSSPTPKRSLSSSKCDPRHKDCLLREFRKLCAMVADNPSYNTKTQIIQDFLRKGSAGDGFHGDVYLTVKLLLPGVIKTVYNLNDKQIVKLFSRIFNCNPDDMARDLEQGDVSETIRVFFEQSKSFPPAAKSLLTIQEVDEFLLRLSKLTKEDEQQQALQDIASRCTANDLKCIIRLIKHDLKMNSGAKHVLDALDPNAYEAFKASRNLQDVVERVLHNAQEVEKEPGQRRALSVQASLMTPVQPMLAEACKSVEYAMKKCPNGMFSEIKYDGERVQVHKNGDHFSYFSRSLKPVLPHKVAHFKDYIPQAFPGGHSMILDSEVLLIDNKTGKPLPFGTLGVHKKAAFQDANVCLFVFDCIYFNDVSLMDRPLCERRKFLHDNMVEIPNRIMFSEMKRVTKALDLADMITRVIQEGLEGLVLKDVKGTYEPGKRHWLKVKKDYLNEGAMADTADLVVLGAFYGQGSKGGMMSIFLMGCYDPGSQKWCTVTKCAGGHDDATLARLQNELDMVKISKDPSKIPSWLKVNKIYYPDFIVPDPKKAAVWEITGAEFSKSEAHTADGISIRFPRCTRIRDDKDWKSATNLPQLKELYQLSKEKADFTVVAGDEGSSTTGGSSEENKGPSGSAVSRKAPSKPSASTKKAEGKLSNSNSKDGNMQTAKPSAMKVGEKLATKSSPVKVGEKRKAADETLCQTKVLLDIFTGVRLYLPPSTPDFSRLRRYFVAFDGDLVQEFDMTSATHVLGSRDKNPAAQQVSPEWIWACIRKRRLVAPC

How the values were obtained:
tGFP-53BP1 = tGFP-53BP1 (UniProt Q12888); assay: co-IP
MYC-53BP1 = MYC-53BP1 (UniProt Q12888); assay: co-IP

Row | Binder | binding (tGFP-53BP1) | binding (MYC-53BP1)
1 | B1 | binds | 
2 | B2 |  | binds
